From ChEMBL document CHEMBL3988442, “University of Dundee, Small-Polar-MMV Screening Library” (2021).

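Whole-cell assay for inhibitors of Mycobacterium tuberculosis growth, labelled Cornell in the record; the read-out is not stated. The concentration is filed as 10 mM, unlikely as a test dose, so the dose is not known. The record gives no direction; compounds strong in two other growth screens of this library score well above the rest, so higher reads as stronger inhibition. About 53,000 compounds were tested under these conditions; 1.7% (about 900) showed 50% or more at least once.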

The filed quantity is “Percent Effect” (%). The controls that fix the scale are not given in the record; negative values are as filed. Compounds were drawn at random from those tested, without regard to their results.

| compound | percent effect |
|---|---|
| `Cc1[nH]ncc1C(=O)N(CC(C)C)CC(O)c1ccc(F)cc1` (stereo unspecified) | -26.96% |
| `O=C1CN(C(=O)CCn2c(C(F)(F)F)cc3cccnc32)CCN1` | -20.25% |
| `CCN1C(=O)CCC12CCN(C(=O)c1ccco1)CC2` | 8.748% |
| `[H][C@]12CCCN(c3ncc(C)cn3)[C@@]1([H])CN(S(C)(=O)=O)C2` | -3.189% |
| `O=C(O)C(F)(F)F.[H][C@@]12CN(Cc3scnc3C)C[C@H](C(=O)NCC3CC3)[C@]1([H])CCO2` | -0.4488% |
| `CN(CC(=O)NCC1CCCO1)Cc1nc2c(s1)CCCC2` (stereo unspecified) | 4.8% |
| `O=C(O)C(F)(F)F.O=C(O)C(F)(F)F.O=C(O)C(F)(F)F.[H][C@]12CCN(Cc3ccccn3)[C@@]1([H])CC[C@H](COCc1ccccn1)O2` | 17.2% |
| `Cc1nc(C)n(C2CCCN(C(=O)c3nc(C)n4ccccc34)C2)n1` (stereo unspecified) | -2.141% |
| `CCOc1ccccc1C(CC(=O)N(C)C)NC(C)=O` (stereo unspecified) | -39.39% |
| `COCCn1ccnc1CN1CCc2[nH]cnc2C1c1cccc(O)c1` (stereo unspecified) | 27.07% |
| `[H][C@]12CN(c3ncc(CC)cn3)C[C@@]1([H])S(=O)(=O)CC[C@@H]2C(=O)N(C)C` | -20.72% |
| `CCNC(=O)NC(=O)CN1CCOC(c2cccc(Br)c2)C1` (stereo unspecified) | -3.833% |
| `CCCNC(=O)c1cc(C2CCCN(Cc3ccccn3)C2)no1` (stereo unspecified) | -3.71% |
| `CCN(C)c1ncnc2c1CCN(C(=O)N1CCCC1)CC2.O=C(O)C(F)(F)F` | -0.7409% |
| `NC(=O)c1ccc(N2CCN(Cc3ccc(F)cc3Cl)CC2)nn1` | 22.61% |
| `c1ccc(N2CCCC(c3nc(-c4cccnn4)no3)C2)nc1` (stereo unspecified) | 12.54% |
| `CNCCc1nc2cc(Cl)ccc2[nH]1.Cl.Cl` | 4.447% |
| `COc1ccc(C(=O)Nc2cnn(CC(=O)NC3CCCC3)c2)c(O)c1` | 16.81% |
| `Cc1nc(C2CN(C)CCO2)cc(N2CCC(C(N)=O)CC2)n1` (stereo unspecified) | -32.82% |
| `O=C(c1nc2c(s1)CCCN2CC1CC1)N1CCCC1` | -29.4% |
| `CC(C)N(CC(N)=O)Cc1cccc(C(F)(F)F)c1` | -6.268% |
| `CC(C(=O)N1CCCN(c2ccc(C#N)cc2)CC1)n1cccn1` (stereo unspecified) | -10.7% |
| `Cc1nn(C)c(N(C)C)c1CNCCC(=O)NC1CCCC1` | -0.08845% |
| `CC(C)[C@H](N)C(=O)N1CCCC(C2=Nc3ccccc3S(=O)(=O)N2)C1.Cl` (stereo partly specified) | 49.83% |
| `CC(=O)NCc1ccc(-c2ccccc2C(=O)O)cn1` | 56.71% |
| `CNS(=O)(=O)CC1CCCN1C(=O)c1cccc(Cl)c1` (stereo unspecified) | -8.63% |
| `CNC(=O)CC1CCN(C(=O)NCC2(c3ccccc3F)CC2)CC1` | -0.9759% |
| `CC(c1cccnc1)N1CCN(CCc2ccccn2)CC1` (stereo unspecified) | 0.2826% |
| `C=C(C)CN1CCN(Cc2cnc(OC)nc2)CC1` | 2.551% |
| `O=C(Cc1ccsc1)N1CCC(n2nc(-c3ccco3)ccc2=O)CC1` | 21.84% |
| `Cc1ccccc1CN(CCN(C)C)Cc1ccc(S(C)(=O)=O)cc1` | 9.97% |
| `COC(=O)CC1CCN(C(=O)c2ccc(C)cc2)CC1` | 16.39% |
| `OCCC1CN(c2ncnc3[nH]cnc23)CCN1Cc1ccccc1` (stereo unspecified) | 17.35% |
| `O=C(O)C(F)(F)F.O=C(O)C(F)(F)F.[H][C@@]12OCCN(Cc3csc(C)n3)[C@@]1([H])CC[C@@H]2OCc1ccccn1` | -13.08% |
| `CCN(c1ccc(C(=O)N2CCC(C)CC2)cc1)S(=O)(=O)CC` | -8.883% |
| `O=C(CN1CCCC(c2ccc(C(=O)O)cc2)C1)NC1CC1` (stereo unspecified) | 11.08% |
| `COCCN1CCC1c1cc(NC2CCCC2)nc(C)n1` (stereo unspecified) | 22.2% |
| `O=C(O)C(F)(F)F.O=C(O)C(F)(F)F.[H][C@@]12CN(Cc3ccc(OC)cc3)C[C@]1([H])OCCN2CC1CCCO1` (stereo partly specified) | -1.06% |
| `COc1cccc(-c2cnc(CNC(C)(C)c3nc(C)cs3)o2)c1` | 24.69% |
| `O=C(Nc1ccc(S(=O)(=O)Nc2c(F)cccc2F)cc1)N1CCCC1` | 14.02% |
| `CCc1nc(-c2ccnc(N3CCNCC3)n2)no1.Cl.Cl` | 0.4567% |
| `COc1ccc2nnc(CCCC(=O)NCc3ccccc3F)n2n1` | -8.135% |
| `O=C(O)C(F)(F)F.O=C(O)C(F)(F)F.O=C1CC2(CCN(Cc3ccncc3)C2)CN1c1ccc2c(c1)OCO2` (stereo unspecified) | -93.88% |
| `O=C1CCCc2[nH]c(=O)c(C(=O)N3CCc4ccccc4C3)cc21` | -29.39% |
| `CC(C)=CCCC(C)CN1CCC(n2cc(C(C)(C)O)nn2)CC1` (stereo unspecified) | -53.35% |
| `Cc1cc(-c2ccc(=O)n(CCNC(=O)C3CCC3)n2)c(C)o1` | -20.09% |
| `N[C@H]1CN(C(=O)c2ccc3[nH]c(=O)c(=O)[nH]c3c2)C[C@@H]1c1ccccc1` | -21.5% |
| `O=C(O)C(F)(F)F.O=C(O)C(F)(F)F.[H][C@@]12C[C@@H](Oc3ccc(C)cc3)CN1CCN(Cc1nccn1C)C2` | 20.63% |
| `Cc1ccccc1C1(CNC(=O)NC(C)c2nncn2C)CC1` (stereo unspecified) | -0.7174% |
| `CC(C)OC[C@H]1CCC[C@]12CN(S(=O)(=O)c1cn(C)cn1)CCO2` | 7.837% |
| `COc1ccc(CC(C)(O)CNC(=O)NCc2cccs2)cc1` (stereo unspecified) | -37.11% |
| `Cl.O=C(c1cccnc1)N1CCC2(CC1)CNc1c(F)cccc12` | 7.759% |
| `CC(NC(=O)NCCNc1ncccn1)c1cccs1` (stereo unspecified) | 9.455% |
| `CN1CCN(c2ccccc2CNC(=O)Cc2cccc(F)c2)CC1` | -5.467% |
| `CCc1nnc(Sc2nn3cc(C)nc3s2)n1C` | -38.86% |
| `CC(=O)N[C@@H]1CN(C(=O)c2csc(C(C)C)n2)C[C@H]1C(C)C` | -21.93% |
| `COc1ccccc1CCN1CCCC(CN(C)Cc2cc(C)n[nH]2)C1` (stereo unspecified) | 2.454% |
| `Cc1nc(CN(C)c2nccc(C(F)(F)F)n2)cs1` | 5.873% |
| `Cc1n[nH]c(C2CN(CC(=O)NCCc3ccccc3C)CCO2)n1` (stereo unspecified) | 18.81% |
| `CC(C)N1c2sc(-c3ccsc3)nc2CC1C(=O)NC1CC1` (stereo unspecified) | -17.92% |
| `O=C1NCC2(CCCN(C(=O)c3ccc4c(c3)CCO4)C2)O1` (stereo unspecified) | -5.516% |
| `COCCn1cnc(-c2cc(C(=O)NC(C)C)c3ccccn23)c1` | 23.64% |
| `CN1CCNC(=O)C1CC(=O)NCCc1cnn(-c2ccccc2)c1` (stereo unspecified) | -31.77% |
| `Cc1nccn1-c1cc(CNC(=O)N2CCSCC2)ccn1` | -0.9834% |
| `CN1CCC(NC(=O)c2cc(Br)cc(Cl)c2O)C1=O` (stereo unspecified) | 0.1897% |
| `O=C(CC1=CCCCC1)N1CCC(Cn2cc(CCO)nn2)CC1` | 14.82% |
| `Cn1ccc(C(=O)N2CCc3[nH]nc(Nc4ccccc4)c3C2)n1` | 9.149% |
| `CCN(CC)CCNC(=O)CCc1c(C)nn(-c2cccc(Cl)c2)c1C` | -5.917% |
| `CC1c2ncc(Cn3cccn3)n2CCN1Cc1ccc(F)cc1.O=C(O)C(F)(F)F` (stereo unspecified) | -4.828% |
| `CCc1c(C)sc2c1c(N)nc(=O)n2CCN1CCCCC1` | 22.93% |
| `COc1ncccc1C(=O)N1CCCC1c1c(C)n[nH]c1C` (stereo unspecified) | 26.86% |
| `Cc1sc(Br)cc1S(=O)(=O)NCc1ccccn1` | 20.13% |
| `O=C(O)C(F)(F)F.O=C(O)C(F)(F)F.O=C(O)C(F)(F)F.[H][C@@]12CN(Cc3ccncc3)C[C@]1([H])[C@@H](OC)CCN2C1CCC1` | 29.47% |
| `Cl.O=C(c1ccnc(C2CCNCC2)c1)N1CCCOCC1` | 46.78% |
| `[H][C@@]12CN(Cc3cccnc3)C[C@]1([H])N(CCCN1CCOCC1)C(=O)O2` | -13.2% |
| `Cc1cccc(CNC[C@H]2COCc3nc4cccnc4n32)n1` | -2.701% |
| `CC(C)(C)c1cnc(CN2CCC(c3ccnn3CCO)CC2)o1` | 8.688% |
| `[H][C@@]12CCN(Cc3nccs3)[C@]1([H])CC[C@H](C(=O)N1CCN(C)CC1)O2` | 16.64% |
| `Cc1ccc(C)c(S(=O)(=O)NCCOc2ccc3nnc(C)n3n2)c1` | -21.46% |

Once more, the final 10:

compound	percent effect
CCc1c(C)sc2c1c(N)nc(=O)n2CCN1CCCCC1	22.93%
COc1ncccc1C(=O)N1CCCC1c1c(C)n[nH]c1C (stereo unspecified)	26.86%
Cc1sc(Br)cc1S(=O)(=O)NCc1ccccn1	20.13%
O=C(O)C(F)(F)F.O=C(O)C(F)(F)F.O=C(O)C(F)(F)F.[H][C@@]12CN(Cc3ccncc3)C[C@]1([H])[C@@H](OC)CCN2C1CCC1	29.47%
Cl.O=C(c1ccnc(C2CCNCC2)c1)N1CCCOCC1	46.78%
[H][C@@]12CN(Cc3cccnc3)C[C@]1([H])N(CCCN1CCOCC1)C(=O)O2	-13.2%
Cc1cccc(CNC[C@H]2COCc3nc4cccnc4n32)n1	-2.701%
CC(C)(C)c1cnc(CN2CCC(c3ccnn3CCO)CC2)o1	8.688%
[H][C@@]12CCN(Cc3nccs3)[C@]1([H])CC[C@H](C(=O)N1CCN(C)CC1)O2	16.64%
Cc1ccc(C)c(S(=O)(=O)NCCOc2ccc3nnc(C)n3n2)c1	-21.46%